Measurements reported in patent US20250262315A1 (priority 2021, published 2025).

Test: general procedure: Fmoc solid-phase peptide synthesis; 2-Chlorotrityl chloride resin; HATU/DIPEA
Details: conjugation step

## Fmoc-peg3-Glu-Gly-Cit-PABC-MMAE
For the 2 steps
  conjugation yield: 57%

## Fmoc-peg3-Glu-Gly-Cit-PABC-MMAF
For the 2 steps
  conjugation yield: 85%

## Fmoc-peg3-Glu-Val-(N-Me)Cit-PABC-MMAE
For the 2 steps
  conjugation yield: 30%

## Fmoc-peg4-Gly-Cit-PABC-MMAE
  conjugation yield: 56%
